Data from PubChem BioAssay AID248 (DTP/NCI, 2004).
The list is a part of this screen's results and no random one: it is rich in T/C values a quarter to a half above the control, in often repeated tests (any T/C) and in doses without a T/C. Other doses and runs of a compound stand elsewhere. T/C gives the treated animals as a percentage of the vehicle group. Some entries give survivors of the animals treated and no T/C: the source files T/C as zero there, which appears to mark a toxic dose or a test without result, not a measured value. Some survivor counts are full or nearly so, which does not show that the dose was tolerated: the source hardly ever lists a survival T/C far under the control, and the zero likely stands for such cases as well. Survivors were counted at the toxicity check, usually on the fifth day, unless a day is given; later deaths do not show. Schedules are NCI's codes, taken here to give the interval after Q, in days (D) or hours (H), and the number of doses after X. Some schedules carry Z or #; the key to these is not given. For survival time, this PubChem deposit counts one and a half times the control or more as active, and values a quarter to a half above the control carry no call in these data; other NCI protocols may use other cut-offs. Some T/C values are followed by the survivors on the day toxicity was checked, most often the fifth; without a count, all were alive then.

Tested on: L1210 leukemia ip in BDF1 mice, survival T/C
Assay: NCI In Vivo Anticancer Drug Screen. Data for tumor model L1210 Leukemia (intraperitoneal) in B6D2F1 (BDF1) mice
Conditions: T/C endpoint: mean survival time, higher T/C = longer survival
[1] = dose: 200.0 mg/kg/injection, schedule: Q01DX001 (ip), vehicle: saline
[2] = dose: 400.0 mg/kg/injection, schedule: Q04DX002 (ip), vehicle: saline with Tween-80
[3] = dose: 50.0 mg/kg/injection, schedule: Q01DX009 (ip), vehicle: saline with Tween-80
[4] = dose: 200.0 mg/kg/injection, schedule: Q01DX009 (ip), vehicle: saline with Tween-80
[5] = dose: 200.0 mg/kg/injection, schedule: Q01DX009 (ip), vehicle: Klucel (hydroxypropylcellulose) (HPC)
[6] = dose: 400.0 mg/kg/injection, schedule: Q01DX009 (ip), vehicle: Klucel (hydroxypropylcellulose) (HPC)
[7] = dose: 100.0 mg/kg/injection, schedule: Q01DX009 (ip), vehicle: Klucel (hydroxypropylcellulose) (HPC)
[8] = dose: 400.0 mg/kg/injection, schedule: Q01DX009 (ip), vehicle: acetone
[9] = dose: 400.0 mg/kg/injection, schedule: Q04DX003 (ip), vehicle: Klucel (hydroxypropylcellulose) (HPC)
[10] = dose: 200.0 mg/kg/injection, schedule: Q04DX003 (ip), vehicle: Klucel (hydroxypropylcellulose) (HPC)

O=C1C=CC(=NCl)C=C1
survivor count (dose: 3.75 mg/kg/injection, schedule: Q01DX015 (ip), vehicle: carboxymethylcellulose (CMC)): 6 of 6 | survivor count (dose: 20.0 mg/kg/injection, schedule: Q01DX001 (ip), vehicle: carboxymethylcellulose (CMC)): 3 of 6 | survivor count (dose: 40.0 mg/kg/injection, schedule: Q01DX001 (ip), vehicle: carboxymethylcellulose (CMC)): 0 of 6 | survivor count (dose: 50.0 mg/kg/injection, schedule: Q01DX001 (ip), vehicle: carboxymethylcellulose (CMC)): 0 of 4 | survivor count (dose: 80.0 mg/kg/injection, schedule: Q01DX001 (ip), vehicle: carboxymethylcellulose (CMC)): 0 of 6 | survivor count (dose: 100.0 mg/kg/injection, schedule: Q01DX001 (ip), vehicle: carboxymethylcellulose (CMC)): 0 of 4 | survivor count (dose: 200.0 mg/kg/injection, schedule: Q01DX001 (ip), vehicle: carboxymethylcellulose (CMC)): 0 of 4 | survivor count (dose: 400.0 mg/kg/injection, schedule: Q01DX001 (ip), vehicle: carboxymethylcellulose (CMC)): 0 of 4

O=C(C=C(C(F)(F)F)C(F)(F)F)/C=C/c1ccccc1
survivor count (dose: 6.25 mg/kg/injection, schedule: Q01DX009 (ip), vehicle: other): 3 of 6 | survivor count (dose: 12.5 mg/kg/injection, schedule: Q01DX009 (ip), vehicle: other): 1 of 6 | survivor count (dose: 25.0 mg/kg/injection, schedule: Q04DX003 (ip), vehicle: other): 4 of 6 | survivor count (dose: 50.0 mg/kg/injection, schedule: Q04DX003 (ip), vehicle: other): 3 of 6 | survivor count (dose: 100.0 mg/kg/injection, schedule: Q04DX003 (ip), vehicle: other): 6 of 6 | survivor count (dose: 200.0 mg/kg/injection, schedule: Q04DX003 (ip), vehicle: other): 5 of 6 | survivor count (dose: 400.0 mg/kg/injection, schedule: Q04DX003 (ip), vehicle: other): 0 of 6

[O-][n+]1c2ccccc2c(Oc2ccccc2)c2ccc3ccccc3c21
survivor count (dose: 200.0 mg/kg/injection, schedule: Q04DX003 (ip), vehicle: saline with Tween-80): 3 of 3

C1=COC(/C=N/Nc2nnc(N/N=C/C3CCC=CO3)c3ccccc23)CC1 (stereo unspecified)
survivor count (dose: 50.0 mg/kg/injection, schedule: Q01DX001 (ip), vehicle: saline): 0 of 4 | survivor count (dose: 80.0 mg/kg/injection, schedule: Q01DX001 (ip), vehicle: saline): 1 of 4 | survivor count (dose: 100.0 mg/kg/injection, schedule: Q01DX001 (ip), vehicle: saline): 0 of 4 | survivor count [1]: 0 of 4 | survivor count (dose: 400.0 mg/kg/injection, schedule: Q01DX001 (ip), vehicle: saline): 0 of 4

O=S(NOCCCCONS(=O)c1ccccc1)c1ccccc1 (stereo unspecified)
survivor count (dose: 200.0 mg/kg/injection, schedule: Q01DX001 (ip), vehicle: saline with Tween-80): 3 of 6 | survivor count (dose: 400.0 mg/kg/injection, schedule: Q01DX001 (ip), vehicle: saline with Tween-80): 2 of 6 | survivor count [2]: 3 of 6

CCCCCCOP(=O)(N1CC1C)N1CC1C (stereo unspecified)
T/C (dose: 100.0 mg/kg/injection, schedule: Q01DX Z (ip), vehicle: saline): 129 % of control [4 of 6 alive]

O=C(NCC(O)CNC(=O)Nc1ccc(C2=NCC(O)CN2)cc1)Nc1ccc(C2=NCC(O)CN2)cc1 (stereo unspecified)
survivor count (dose: 200.0 mg/kg/injection, schedule: Q01DX Z (ip), vehicle: carboxymethylcellulose (CMC)): 0 of 6

COc1ccc(COC(=O)Nc2cccc(Cl)c2)cc1
survivor count (dose: 400.0 mg/kg/injection, schedule: Q04DX002 (ip), vehicle: Klucel (hydroxypropylcellulose) (HPC)): 5 of 6

CCOC(=O)/C=C1\NC(=O)N(CCCN2C(=O)N/C(=C\C(=O)OCC)C2=O)C1=O
survivor count [3]: 3 of 3 | survivor count [4]: 3 of 3

ClC/C=[CH]/[Sn]([c]1ccccc1)([c]1ccccc1)[c]1ccccc1
survivor count (dose: 200.0 mg/kg/injection, schedule: Q01DX009 (ip), vehicle: saline): 1 of 3

CN(Cc1cnc2nc(N)nc(N)c2n1)c1cc(Cl)c(C(=O)NC(CCC(=O)O)C(=O)O)cc1Cl (stereo unspecified)
T/C (dose: 25.0 mg/kg/injection, schedule: Q01DX009 (ip), vehicle: sodium bicarbonate): 132 % of control | T/C (dose: 50.0 mg/kg/injection, schedule: Q01DX009 (ip), vehicle: sodium bicarbonate): 144 % of control

Cc1ccc(Cl)cc1NC(=O)Nc1ccc(N(C)C)cc1
survivor count [2]: 6 of 6

CC(C)=CCN(CC=C(C)C)CCC(C#N)(CCN(CC=C(C)C)CC=C(C)C)c1cccc2ccccc12
survivor count [5]: 0 of 6 | survivor count [6]: 0 of 6

Cc1cnc2c(N)[nH]nc2n1
survivor count [7]: 3 of 6

Br/C=C/C1=CCCCC1
survivor count [8]: 0 of 6

O=C[CH2][Hg][Cl]
survivor count [3]: 0 of 3 | survivor count (dose: 100.0 mg/kg/injection, schedule: Q01DX009 (ip), vehicle: saline with Tween-80): 0 of 3 | survivor count [4]: 0 of 3

CCSC1=NCCS1
survivor count (dose: 300.0 mg/kg/injection, schedule: Q01DX001 (ip), vehicle: other): 1 of 6

COc1cc2ccc3c(c2cc1OC)CN(C)CC3
survivor count (dose: 200.0 mg/kg/injection, schedule: Q04DX003 (ip), vehicle: saline): 0 of 6 | survivor count (dose: 400.0 mg/kg/injection, schedule: Q04DX003 (ip), vehicle: saline): 0 of 6

CC(=O)CC(=O)Oc1ccccc1OC(C)=O
survivor count [9]: 1 of 6

CSC(SC)=C(C#N)C#N
T/C (dose: 50.0 mg/kg/injection, schedule: Q04DX002 (ip), vehicle: saline): 125 % of control [2 of 3 alive] | survivor count (dose: 100.0 mg/kg/injection, schedule: Q04DX002 (ip), vehicle: saline): 0 of 3 | survivor count (dose: 200.0 mg/kg/injection, schedule: Q04DX002 (ip), vehicle: saline): 0 of 3 | survivor count (dose: 400.0 mg/kg/injection, schedule: Q04DX002 (ip), vehicle: saline): 0 of 3

Cc1cc(C(=O)NNCc2ccccc2)no1
survivor count [7]: 6 of 6 | survivor count [5]: 2 of 6

C/C(=N\N=C(/C)c1ccc(N)cc1)c1ccc(N)cc1
survivor count [1]: 6 of 6

FC(F)(F)COC(Br)CBr (stereo unspecified)
survivor count (dose: 75.0 mg/kg/injection, schedule: Q01DX001 (ip), vehicle: carboxymethylcellulose (CMC)): 1 of 6 | survivor count (dose: 150.0 mg/kg/injection, schedule: Q01DX001 (ip), vehicle: carboxymethylcellulose (CMC)): 0 of 6 | survivor count (dose: 300.0 mg/kg/injection, schedule: Q01DX001 (ip), vehicle: carboxymethylcellulose (CMC)): 0 of 6

CC(C)c1ccc(/C=C\C(=O)c2ccc(-c3ccccc3)cc2)cc1
T/C (dose: 400.0 mg/kg/injection, schedule: Q01DX009 (ip), vehicle: saline with Tween-80): 138 % of control [2 of 3 alive]

S=C([S-])N1CCOCC1.S=C([S-])N1CCOCC1.[Zn]
survivor count (dose: 75.0 mg/kg/injection, schedule: Q04DX003 (ip), vehicle: saline): 2 of 6 | survivor count (dose: 150.0 mg/kg/injection, schedule: Q01DX001 (ip), vehicle: saline): 0 of 6 | survivor count (dose: 300.0 mg/kg/injection, schedule: Q01DX001 (ip), vehicle: saline): 0 of 6

CC1(C)N=C(N)N=C(N)N1c1ccc(OCCCc2ccccc2)c([N+](=O)[O-])c1
survivor count [6]: 0 of 6

CCOC(=O)C(O)(O)C(C)C
T/C [1]: 138 % of control

CCCNS(=O)(=O)c1ccc(Cl)c([N+](=O)[O-])c1
survivor count [9]: 3 of 6

Nc1ccc(S(=O)(=O)F)cc1N
survivor count [8]: 1 of 6

Cc1c(Cl)cc(Cl)c2ncccc12
survivor count (dose: 100.0 mg/kg/injection, schedule: Q04DX003 (ip), vehicle: Klucel (hydroxypropylcellulose) (HPC)): 5 of 6 | survivor count [10]: 0 of 6 | survivor count [9]: 0 of 6

NNC(=O)c1ccccc1[N+](=O)[O-]
survivor count [10]: 3 of 6
